## Melanoma cell counts after drug treatment

Values as published with doi:10.1371/journal.pone.0140310, rounded.

Every entry is a combination with NVP-TAE684 at 0.08 µM: COc1cc(N2CCC(N3CCN(C)CC3)CC2)ccc1Nc1ncc(Cl)c(Nc2ccccc2S(=O)(=O)C(C)C)n1

Compounds and concentrations:
CP-690550: C[C@@H]1CCN(C(=O)CC#N)C[C@@H]1N(C)c1ncnc2[nH]ccc12 at 1 µM
SNS-314: O=C(Nc1cccc(Cl)c1)Nc1ncc(CCNc2ncnc3ccsc23)s1 at 0.0008 µM
FK866: O=C(/C=C/c1cccnc1)NCCCCC1CCN(C(=O)c2ccccc2)CC1 at 0.01 µM
vincristine: CC[C@]1(O)C[C@H]2CN(CCc3c([nH]c4ccccc34)[C@@](C(=O)OC)(c3cc4c(cc3OC)N(C=O)[C@H]3[C@@](O)(C(=O)OC)[C@H](OC(C)=O)[C@]5(CC)C=CCN6CC[C@]43[C@@H]65)C2)C1 at 0.0001 µM
tozasertib: Cc1cc(Nc2cc(N3CCN(C)CC3)nc(Sc3ccc(NC(=O)C4CC4)cc3)n2)n[nH]1 at 0.006 µM
dorsomorphin: c1cc(-c2cnn3cc(-c4ccc(OCCN5CCCCC5)cc4)cnc23)ccn1 at 0.4 µM
dovitinib: CN1CCN(c2ccc3nc(-c4c(N)c5c(F)cccc5[nH]c4=O)[nH]c3c2)CC1 at 0.1 µM
U73122: COc1ccc2c(c1)CCC1C2CCC2(C)C(NCCCCCCN3C(=O)C=CC3=O)CCC12 (centres undefined) at 0.4 µM
BI-D1870: CC(C)CCN1c2nc(Nc3cc(F)c(O)c(F)c3)ncc2N(C)C(=O)C1C (centres undefined) at 0.2 µM
nilutamide: CC1(C)NC(=O)N(c2ccc([N+](=O)[O-])c(C(F)(F)F)c2)C1=O at 1 µM
BI-78D3: O=c1[nH]nc(Sc2ncc([N+](=O)[O-])s2)n1-c1ccc2c(c1)OCCO2 at 0.2 µM
VX-702: NC(=O)c1ccc(N(C(N)=O)c2c(F)cccc2F)nc1-c1ccc(F)cc1F at 0.4 µM

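The test systems are human melanoma cell lines, treated with a pair of drugs for 72 h and then stained and imaged. Values are the number of DAPI-stained nuclei as a percentage of the DMSO control: 100 is no effect, lower means fewer cells. Concentrations were fixed for each drug; these are the lower of two levels, a fifth of the higher. These are primary screening values without error estimates.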
Only some of the drugs and lines screened are listed, without regard to their results.
A dash means that no value is listed here.

Second drug | A375 | 501mel | A2058
nilutamide | 98.5 | 104 | 87.7
dovitinib | - | 79.9 | 88.9
vincristine | - | 99.9 | 19.5
tozasertib | - | 71.5 | 91.1
BI-D1870 | 84.0 | 108 | 96.4
SNS-314 | 89.5 | 92.6 | 92.4
BI-78D3 | - | 107 | 94.0
VX-702 | - | 106 | 85.5
dorsomorphin | 93.8 | 89.3 | 106
FK866 | - | 88.3 | 94.1
CP-690550 | 81.6 | 84.1 | 68.2
U73122 | 89.9 | - | 82.7

Some entries from above, unchanged:

Second drug,A375,501mel,A2058
VX-702,-,106,85.5
vincristine,-,99.9,19.5